From article PMC9547787 come the findings set out here.

The target in the test is H3.1K27M (FLAG-BirA* fusion, BioID bait) (human). Description: proximity labelling; BioID: FLAG-BirA*-H3 (WT or mutant) induced in Flp-In T-REx HEK293 with 50 uM biotin for 24 h; streptavidin sepharose pull-down, LC-MS/MS; high confidence BFDR <= 0.01 against FlagBirA* controls; mutants compared with their WT by peptide counts.

Results are given in words; binding and its absence hold for the method and conditions named. Binding seen in cells or lysates may run through a third protein. Here binding means that the protein was enriched with, or labelled near, the bait; the list need not be complete. A no says only that the protein was not detected with the bait.

B1: ADNP2 (protein, UniProt Q6IQ32 1-1131)
chain: MFQIPVENLDNIRKVRKKVKGILVDIGLDSCKELLKDLKGFDPGEKYFHNTSWGDVSLWEPSGKKVRYRTKPYCCGLCKYSTKVLTSFKNHLHRYHEDEIDQELVIPCPNCVFASQPKVVGRHFRMFHAPVRKVQNYTVNILGETKSSRSDVISFTCLKCNFSNTLYYSMKKHVLVAHFHYLINSYFGLRTEEMGEQPKTNDTVSIEKIPPPDKYYCKKCNANASSQDALMYHILTSDIHRDLENKLRSVISEHIKRTGLLKQTHIAPKPAAHLAAPANGSAPSAPAQPPCFHLALPQNSPSPAAGQPVTVAQGAPGSLTHSPPAAGQSHMTLVSSPLPVGQNSLTLQPPAPQPVFLSHGVPLHQSVNPPVLPLSQPVGPVNKSVGTSVLPINQTVRPGVLPLTQPVGPINRPVGPGVLPVSPSVTPGVLQAVSPGVLSVSRAVPSGVLPAGQMTPAGQMTPAGVIPGQTATSGVLPTGQMVQSGVLPVGQTAPSRVLPPGQTAPLRVISAGQVVPSGLLSPNQTVSSSAVVPVNQGVNSGVLQLSQPVVSGVLPVGQPVRPGVLQLNQTVGTNILPVNQPVRPGASQNTTFLTSGSILRQLIPTGKQVNGIPTYTLAPVSVTLPVPPGGLATVAPPQMPIQLLPSGAAAPMAGSMPGMPSPPVLVNAAQSVFVQASSSAADTNQVLKQAKQWKTCPVCNELFPSNVYQVHMEVAHKHSESKSGEKLEPEKLAACAPFLKWMREKTVRCLSCKCLVSEEELIHHLLMHGLGCLFCPCTFHDIKGLSEHSRNRHLGKKKLPMDYSNRGFQLDVDANGNLLFPHLDFITILPKEKLGEREVYLAILAGIHSKSLVPVYVKVRPQAEGTPGSTGKRVSTCPFCFGPFVTTEAYELHLKERHHIMPTVHTVLKSPAFKCIHCCGVYTGNMTLAAIAVHLVRCRSAPKDSSSDLQAQPGFIHNSELLLVSGEVMHDSSFSVKRKLPDGHLGAEDQRHGEEQPPILNADAAPGPEKVTSVVPFKRQRNESRTEGPIVKDEALQILALDPKKYEGRSYEEKKQFLKDYFHKKPYPSKKEIELLSSLFWVWKIDVASFFGKRRYICMKAIKNHKPSVLLGFDMSELKNVKHRLNFEYEP
Take B1: the binding result is recorded as “binds”.

B2: ATF1 (protein, UniProt P18846 1-271)
chain: MEDSHKSTTSETAPQPGSAVQGAHISHIAQQVSSLSESEESQDSSDSIGSSQKAHGILARRPSYRKILKDLSSEDTRGRKGDGENSGVSAAVTSMSVPTPIYQTSSGQYIAIAPNGALQLASPGTDGVQGLQTLTMTNSGSTQQGTTILQYAQTSDGQQILVPSNQVVVQTASGDMQTYQIRTTPSATSLPQTVVMTSPVTLTSQTTKTDDPQLKREIRLMKNREAARECRRKKKEYVKCLENRVAVLENQNKTLIEELKTLKDLYSNKSV
With B2, the binding result is “binds”.

B3: SETDB2 (protein, UniProt Q96T68 1-719)
chain: MGEKNGDAKTFWMELEDDGKVDFIFEQVQNVLQSLKQKIKDGSATNKEYIQAMILVNEATIINSSTSIKGASQKEVNAQSSDPMPVTQKEQENKSNAFPSTSCENSFPEDCTFLTTENKEILSLEDKVVDFREKDSSSNLSYQSHDCSGACLMKMPLNLKGENPLQLPIKCHFQRRHAKTNSHSSALHVSYKTPCGRSLRNVEEVFRYLLETECNFLFTDNFSFNTYVQLARNYPKQKEVVSDVDISNGVESVPISFCNEIDSRKLPQFKYRKTVWPRAYNLTNFSSMFTDSCDCSEGCIDITKCACLQLTARNAKTSPLSSDKITTGYKYKRLQRQIPTGIYECSLLCKCNRQLCQNRVVQHGPQVRLQVFKTEQKGWGVRCLDDIDRGTFVCIYSGRLLSRANTEKSYGIDENGRDENTMKNIFSKKRKLEVACSDCEVEVLPLGLETHPRTAKTEKCPPKFSNNPKELTVETKYDNISRIQYHSVIRDPESKTAIFQHNGKKMEFVSSESVTPEDNDGFKPPREHLNSKTKGAQKDSSSNHVDEFEDNLLIESDVIDITKYREETPPRSRCNQATTLDNQNIKKAIEVQIQKPQEGRSTACQRQQVFCDEELLSETKNTSSDSLTKFNKGNVFLLDATKEGNVGRFLNHSCCPNLLVQNVFVETHNRNFPLVAFFTNRYVKARTELTWDYGYEAGTVPEKEIFCQCGVNKCRKKIL
Turning to B3, the binding result is on record as “binds”.

B4: mitochondrial transcription factor 1 (TFAM) (protein, UniProt Q00059 43-246)
chain: SSVLASCPKKPVSSYLRFSKEQLPIFKAQNPDAKTTELIRRIAQRWRELPDSKKKIYQDAYRAEWQVYKEEISRFKEQLTPSQIMSLEKEIMDKHLKRKAMTKKKELTLLGKPKRPRSAYNVYVAERFQEAKGDSPQEKLKTVKENWKNLSDSEKELYIQHAKEDETRYHNEMKSWEEQMIEVGRKDLLRRTIKKQRKYGAEEC
For B4, the binding result is recorded as “no binding”.
